Results are given in words; binding and its absence hold for the method and conditions named. In cells and extracts the contact can be indirect. A result given as binding can be weak or reduced; the word gives no strength. Tags and fused reporters may be left off the sequences shown.
Biological target: T1, PIH1D3, LUMIER fusion (human) (UniProt Q9NQM4)
T1 sequence: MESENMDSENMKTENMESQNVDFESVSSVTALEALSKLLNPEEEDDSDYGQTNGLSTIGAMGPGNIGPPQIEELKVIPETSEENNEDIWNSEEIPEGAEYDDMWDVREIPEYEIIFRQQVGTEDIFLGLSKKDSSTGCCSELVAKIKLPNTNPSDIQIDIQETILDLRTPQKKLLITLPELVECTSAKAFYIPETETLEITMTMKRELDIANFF
Test: co-IP; LUMIER: RL fusion (prey) and 3xFLAG-FFL fusion (bait) transiently expressed in HEK293, anti-FLAG coated wells, HNTG buffer, 3 h at 4 °C; co-IP efficiency from luciferase activities

binding: binds
Substance: DYX1C1-iso-c, LUMIER fusion (human)

From publication PMC5974087, “The RPAP3-Cterminal domain identifies R2TP-like quaternary chaperones” (Nature Communications, 2018)
